PubChem BioAssay AID1259254, NCATS | 2017

Assay: 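Finding genes that stop cells copying their DNA twice in one cycle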 (primary screen)
Cell system: human HCT116 colorectal cancer cells
Knock-down reagent: single siRNA against human genes
Duration: 3 days
Measurement: 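Nuclei stained with Hoechst and imaged; cell-cycle phase assigned by DNA content; G2 share scaled per plate, non-targeting siRNA 0%, GMNN siRNA 100%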
Direction: G2 robust z-score: higher = more G2 cells, more excess DNA replication
Hit rule: 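An siRNA counts as active if its G2 robust z-score lies at least 5 MADs above the screen median; here such calls match roughly 38% of GMNN control or more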
The whole screen tested about 59,000 reagents; below is an unselected part. Over the whole deposit, about 1,550 (2.6%) are marked active. 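G2 share is only a proxy for re-replication; each gene was hit by three separate siRNAs, and active genes were retested.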 A number with no mark means an inactive call. Reagents against one gene are numbered here. Further read-outs or replicates are left out here. Not given: the amount of reagent.

KRT81 (keratin 81) #1 — G2 robust z-score = 0.211
KRT81 (keratin 81) #2 — G2 robust z-score = -1.2
KRT81 (keratin 81) #3 — G2 robust z-score = -0.954
FOCAD (focadhesin) #1 — G2 robust z-score = 1.68
FOCAD (focadhesin) #2 — G2 robust z-score = 0.617
FOCAD (focadhesin) #3 — G2 robust z-score = -0.428
TMEM131L (transmembrane 131 like) #1 — G2 robust z-score = -0.647
TMEM131L (transmembrane 131 like) #2 — G2 robust z-score = -0.187
TMEM131L (transmembrane 131 like) #3 — G2 robust z-score = 0.46
MAP1LC3BP1 #1 — G2 robust z-score = -0.597
MAP1LC3BP1 #2 — G2 robust z-score = -0.186
MAP1LC3BP1 #3 — G2 robust z-score = 0.556
ANGEL1 (angel homolog 1) #1 — G2 robust z-score = -1.2
ANGEL1 (angel homolog 1) #2 — G2 robust z-score = 0.942
ANGEL1 (angel homolog 1) #3 — G2 robust z-score = -0.982
TXNDC17 (thioredoxin domain containing 17) #1 — G2 robust z-score = 2.47
TXNDC17 (thioredoxin domain containing 17) #2 — G2 robust z-score = -0.079
TXNDC17 (thioredoxin domain containing 17) #3 — G2 robust z-score = -0.184
FBXO16 (F-box protein 16) #1 — G2 robust z-score = -0.627
FBXO16 (F-box protein 16) #2 — G2 robust z-score = 0.0903
FBXO16 (F-box protein 16) #3 — G2 robust z-score = -1.01
SULT1C2 (sulfotransferase family 1C member 2) #1 — G2 robust z-score = -1.03
SULT1C2 (sulfotransferase family 1C member 2) #2 — G2 robust z-score = 5.53 (active)
SULT1C2 (sulfotransferase family 1C member 2) #3 — G2 robust z-score = -0.751

Reformatted: 2 of the entries above
{"target gene":"FOCAD (focadhesin)","siRNA no.":1,"G2 robust z-score":1.68}
{"target gene":"FOCAD (focadhesin)","siRNA no.":2,"G2 robust z-score":0.617}
